The values that follow come from patent US20230250557A1 (published 2023).

By UniProt entry, the sequences of proteins in these tests, tags left out.
UniProt Q9NZQ7: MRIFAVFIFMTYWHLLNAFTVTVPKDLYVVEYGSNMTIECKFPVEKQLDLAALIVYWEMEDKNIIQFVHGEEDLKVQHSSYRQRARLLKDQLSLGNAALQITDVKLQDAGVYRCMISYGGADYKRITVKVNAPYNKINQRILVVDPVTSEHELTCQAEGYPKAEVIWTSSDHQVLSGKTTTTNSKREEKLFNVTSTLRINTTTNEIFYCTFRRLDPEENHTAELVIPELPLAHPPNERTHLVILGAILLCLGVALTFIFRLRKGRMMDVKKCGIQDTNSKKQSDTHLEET

No constants are given. Whether binding was seen depends on the method and setting. Some binding calls cover weakened binding; strength is not graded here.

B1: 1-2A (designed binder)
chain: GSHMVSGKIVVIGSSTGGPRSLDMIIPNLPKNFPAPIVVVQHGAGWWGGGARGTKSLAQRLDSTSELTVKEAEDGEEVKPGFVYIAPGDFHLGLKAQNGKVFFFLDKSGRVWAGAEAWGVRPAVDFTLDKAAEIYKEKTIAVILTGGSETGSWGGGDGTKGAFKVKFYGGTVIAEDKETSVVFGMPKSVIEEGYADYVLPAYKIPEKLIELV
B2: 1-11C (designed binder)
chain: GSHMVSGKIVVIGSSTGGPRSLDMIIPNLPKNFPAPIVVVQHGAGWYGGGAAGTKSLAQRLDSTSELTVKEAEDGEEVKPGFVYIAPGDFHLGLKAQNGKVFFFLDKSGNSVAGRWYWGVRPAVDFTLDKAAEIYKEKTIAVILTGGEVEGEYDGGDGTKGAFKVKFYGGTVIAEDKETSVVFGMPKSVIEEGYADYVLPAYKIPEKLIELV
B3: 1-12C (designed binder)
chain: GSHMVSGKIVVIGSSTGGPRSLDMIIPNLPKNFPAPIVVVQHGWALNGRYTLGTKSLAQRLDSTSELTVKEAEDGEEVKPGFVYIAPGDFHLGLKAQNGKVFFFLDKSGARDRGREWYGVRPAVDFTLDKAAEIYKEKTIAVILTGGYWEGDYAGGDGTKGAFKVKFYGGTVIAEDKETSVVFGMPKSVIEEGYADYVLPAYKIPEKLIELV
notes: CheBc scaffold clone from modified pQE-80L in E. coli, purified on cobalt resin, detected with anti-FLAG
B4: 1-12B (designed binder)
chain: GSHMVSGKIVVIGSSTGGPRSLDMIIPNLPKNFPAPIVVVQHGWGEVGETEVGTKSLAQRLDSTSELTVKEAEDGEEVKPGFVYIAPGDFHLGLKAQNGKVFFFLDKSGYSYAGELWRGVRPAVDFTLDKAAEIYKEKTIAVILTGGSWWGDLWGGDGTKGAFKVKFYGGTVIAEDKETSVVFGMPKSVIEEGYADYVLPAYKIPEKLIELV
B5: 1-1F (designed binder)
chain: GSHMVSGKIVVIGSSTGGPRSLDMIIPNLPKNFPAPIVVVQHGVSWWGGGSWGTKSLAQRLDSTSELTVKEAEDGEEVKPGFVYIAPGDFHLGLKAQNGKVFFFLDKSGRTYYGLAAWGVRPAVDFTLDKAAEIYKEKTIAVILTGGDAEGWYLGGDGTKGAFKVKFYGGTVIAEDKETSVVFGMPKSVIEEGYADYVLPAYKIPEKLIELV
B6: 2-6D (designed binder)
chain: GSHMVSGKIVVIGSSTGGPRSLDMIIPNLPKNFPAPIVVVQHGAAAWGNVLVGTKSLAQRLDSTSELTVKEAEDGEEVKPGFVYIAPGDFHLGLKAQNGKVFFFLDKSGTYWDGYGWYGVRPAVDFTLDKAAEIYKEKTIAVILTGGEWDGWGLGGDGTKGAFKVKFYGGTVIAEDKETSVVFGMPKSVIEEGYADYVLPAYKIPEKLIELV
B7: 1-12E (designed binder)
chain: GSHMVSGKIVVIGSSTGGPRSLDMIIPNLPKNFPAPIVVVQHGDGWYGGGAVGTKSLAQRLDSTSELTVKEAEDGEEVKPGFVYIAPGDFHLGLKAQNGKVFFFLDKSGGSYTGEWTWGVRPAVDFTLDKAAEIYKEKTIAVILTGGARYGDLRGGDGTKGAFKVKFYGGTVIAEDKETSVVFGMPKSVIEEGYADYVLPAYKIPEKLIELV
notes: as for B3
B8: 1-1B (designed binder)
chain: GSHMVSGKIVVIGSSTGGPRSLDMIIPNLPKNFPAPIVVVQHGEGWYGGGAVGTKSLAQRLDSTSELTVKEAEDGEEVKPGFVYIAPGDFHLGLKAQNGKVFFFLDKSGRGLRGGWSWGVRPAVDFTLDKAAEIYKEKTIAVILTGGAATGSSNGGDGTKGAFKVKFYGGTVIAEDKETSVVFGMPKSVIEEGYADYVLPAYKIPEKLIELV
notes: as for B3
B9: 1-10B (designed binder)
chain: GSHMVSGKIVVIGSSTGGPRSLDMIIPNLPKNFPAPIVVVQHGYSGTGWRTVGTKSLAQRLDSTSELTVKEAEDGEEVKPGFVYIAPGDFHLGLKAQNGKVFFFLDKSGVAYSGWYVYGVRPAVDFTLDKAAEIYKEKTIAVILTGGWSLGVYLGGDGTKGAFKVKFYGGTVIAEDKETSVVFGMPKSVIEEGYADYVLPAYKIPEKLIELV
B10: 2-5C (designed binder)
chain: GSHMVSGKIVVIGSSTGGPRSLDMIIPNLPKNFPAPIVVVQHGGHPQGDINRGGTKSLAQRLDSTSELTVKEAEDGEEVKPGFVYIAPGDFHLGLKAQNGKVFFFLDKSGGAMNYGHAWGGVRPAVDFTLDKAAEIYKEKTIAVILTGGNVEGVWEGGDGTKGAFKVKFYGGTVIAEDKETSVVFGMPKSVIEEGYADYVLPAYKIPEKLIELV
B11: 2-3H (designed binder)
chain: GSHMVSGKIVVIGSSTGGPRSLDMIIPNLPKNFPAPIVVVQHGWEESGWLVEGTKSLAQRLDSTSELTVKEAEDGEEVKPGFVYIAPGDFHLGLKAQNGKVFFFLDKSGLNYWGVWNWGVRPAVDFTLDKAAEIYKEKTIAVILTGGREGGATYGGDGTKGAFKVKFYGGTVIAEDKETSVVFGMPKSVIEEGYADYVLPAYKIPEKLIELV
B12: 2-7B (designed binder)
chain: GSHMVSGKIVVIGSSTGGPRSLDMIIPNLPKNFPAPIVVVQHGEWESGNDENGTKSLAQRLDSTSELTVKEAEDGEEVKPGFVYIAPGDFHLGLKAQNGKVFFFLDKSGYWWEGTNRWGVRPAVDFTLDKAAEIYKEKTIAVILTGGGWYGYEWGGDGTKGAFKVKFYGGTVIAEDKETSVVFGMPKSVIEEGYADYVLPAYKIPEKLIELV
B13: 1-1E (designed binder)
chain: GSHMVSGKIVVIGSSTGGPRSLDMIIPNLPKNFPAPIVVVQHGYDYWGEVVVGTKSLAQRLDSTSELTVKEAEDGEEVKPGFVYIAPGDFHLGLKAQNGKVFFFLDKSGSWVRGSEALGVRPAVDFTLDKAAEIYKEKTIAVILTGGYWDGTWTGGDGTKGAFKVKFYGGTVIAEDKETSVVFGMPKSVIEEGYADYVLPAYKIPEKLIELV
B14: 2-5H (designed binder)
chain: GSHMVSGKIVVIGSSTGGPRSLDMIIPNLPKNFPAPIVVVQHGGHPQGDDLRGGTKSLAQRLDSTSELTVKEAEDGEEVKPGFVYIAPGDFHLGLKAQNGKVFFFLDKSGYWYGGWSWYGVRPAVDFTLDKAAEIYKEKTIAVILTGGWYSGAGLGGDGTKGAFKVKFYGGTVIAEDKETSVVFGMPKSVIEEGYADYVLPAYKIPEKLIELV
B15: 1-3E (designed binder)
chain: GSHMVSGKIVVIGSSTGGPRSLDMIIPNLPKNFPAPIVVVQHGDAWWGGGWRGTKSLAQRLDSTSELTVKEAEDGEEVKPGFVYIAPGDFHLGLKAQNGKVFFFLDKSGDSYTGNWAWGVRPAVDFTLDKAAEIYKEKTIAVILTGGASTGYNGGGDGTKGAFKVKFYGGTVIAEDKETSVVFGMPKSVIEEGYADYVLPAYKIPEKLIELV
B16: 1-8E (designed binder)
chain: GSHMVSGKIVVIGSSTGGPRSLDMIIPNLPKNFPAPIVVVQHGEVLDGAYEEGTKSLAQRLDSTSELTVKEAEDGEEVKPGFVYIAPGDFHLGLKAQNGKVFFFLDKSGCRYEGYGTLGVRPAVDFTLDKAAEIYKEKTIAVILTGGYSEGNYAGGDGTKGAFKVKFYGGTVIAEDKETSVVFGMPKSVIEEGYADYVLPAYKIPEKLIELV

The assay addresses Biotinylated human PD-L1 antigen comprising a human IgG1 Fc domain (Acro Biosystems) (human) (UniProt Q9NZQ7). Briefly: ELISA screen of clone lysates on coated antigen, anti-FLAG-HRP. On the technique in general: ELISA stands for enzyme-linked immunosorbent assay.
Take B1: the binding entry is “binds”.

For the molecule B2, the binding result is reported as “binds”.

For the molecule B3, the binding result is given as “binds”.

Consider B4, for which the binding result was “binds”.

With B5, the binding result is reported as “binds”.

B6: the binding result was “binds”.

Consider B7, for which the binding result is recorded as “binds”.

As for B8, the binding result is “binds”.

Consider B9, for which the binding entry was “binds”.

B10: the binding entry is “binds”.

Take B11: the binding entry is “binds”.

For B12, the binding entry was “binds”.

In the case of B13, the binding result is on record as “binds”.

Regarding B14, the binding result was “binds”.

As to B15, the binding result is “binds”.

As to B16, the binding result was “binds”.
